Laboratory results reported in patent US20230125500A1, “ANGIOSTATIN NEUTRALIZING PEPTIDES DERIVED FROM ATP SYNTHASE ALPHA SUBUNIT” (The Governors of the University of Alberta, priority 2021, published 2023).
No constants are given. Whether binding was seen depends on the method and setting. Some binding calls cover weakened binding; strength is not graded here.

Chains of the proteins cited; added tags and fusions are not shown. Residues count along the entry.
UniProt P00747, residues 99-459: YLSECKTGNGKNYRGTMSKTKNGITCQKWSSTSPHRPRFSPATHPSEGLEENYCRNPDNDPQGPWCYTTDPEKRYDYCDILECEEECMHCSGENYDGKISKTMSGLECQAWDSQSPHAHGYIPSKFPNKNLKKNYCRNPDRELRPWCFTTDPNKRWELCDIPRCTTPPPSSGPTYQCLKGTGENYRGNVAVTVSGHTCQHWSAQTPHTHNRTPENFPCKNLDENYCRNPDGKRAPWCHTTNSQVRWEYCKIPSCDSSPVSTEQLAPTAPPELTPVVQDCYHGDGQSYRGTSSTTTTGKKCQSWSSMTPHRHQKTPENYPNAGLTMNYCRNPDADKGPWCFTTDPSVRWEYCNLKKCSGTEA

target: angiostatin K1-4 (UniProt P00747); assay: immunoprecipitation of angiostatin K1-4 after incubation with trypsinized subunit alpha

binding | Binder
binds | TGTAEMSSILEER [Alpha peptide 1]
binds | AVDSLVPIGR [Alpha peptide 3]
binds | TSIAIDTIINQK [Alpha peptide 2]
